Assay: Sensory profiling (QDA) of oligosaccharide solutions by trained sensory panel
Settings: for Sweet (mean score 0-100) / Bitter (mean score 0-100) / CandyFloss (mean score 0-100) / Cardboard_/_Stale (mean score 0-100) / CrustyBread (mean score 0-100) / Metallic (mean score 0-100) / Perfume (mean score 0-100) / Salty (mean score 0-100) / Sour/Dairy/Rancid (mean score 0-100) / StrengthOffFlavour (mean score 0-100) / Sweet After Taste (mean score 0-100): 5% w/v in mineral water; for Sweet (mean score 0-100): line scale 0-100 anchored by sucrose standards; for Bitter (mean score 0-100) / CandyFloss (mean score 0-100) / Cardboard_/_Stale (mean score 0-100) / CrustyBread (mean score 0-100) / Metallic (mean score 0-100) / Perfume (mean score 0-100) / Salty (mean score 0-100) / Sour/Dairy/Rancid (mean score 0-100) / StrengthOffFlavour (mean score 0-100) / Sweet After Taste (mean score 0-100): scale 0-100; for Sweet After Taste (mean score 0-100): scored after 30 second delay; for Relative Sweetness (sucrose = 100) (RS), Mean / Relative Sweetness (sucrose = 100) (RS), Min / Relative Sweetness (sucrose = 100) (RS), Max: RS=1/(5/ES)x100; for Relative Sweetness (sucrose = 100) (RS), Mean: 5% w/v saccharide; for Relative Sweetness (sucrose = 100) (RS), Min: from mean minus standard deviation; for Relative Sweetness (sucrose = 100) (RS), Max: from mean plus standard deviation; for Equivalent Sucrose (%) to 5% saccharide, Mean: from mean sweetness rating by sucrose regression equation; for Equivalent Sucrose (%) to 5% saccharide, Min: from mean sweetness rating minus standard deviation; for Equivalent Sucrose (%) to 5% saccharide, Max: from mean sweetness rating plus standard deviation

SMILES | Sweet (mean score 0-100) | Bitter (mean score 0-100) | CandyFloss (mean score 0-100) | Cardboard_/_Stale (mean score 0-100) | CrustyBread (mean score 0-100) | Metallic (mean score 0-100) | Perfume (mean score 0-100) | Salty (mean score 0-100) | Sour/Dairy/Rancid (mean score 0-100) | StrengthOffFlavour (mean score 0-100) | Sweet After Taste (mean score 0-100) | Relative Sweetness (sucrose = 100) (RS), Mean | Relative Sweetness (sucrose = 100) (RS), Min | Relative Sweetness (sucrose = 100) (RS), Max | Equivalent Sucrose (%) to 5% saccharide, Mean [%] | Equivalent Sucrose (%) to 5% saccharide, Min [%] | Equivalent Sucrose (%) to 5% saccharide, Max [%]
OC[C@H]1O[C@@H](O[C@@H]2[C@@H](CO)OC(O)(CO)[C@H]2O)[C@H](O)[C@@H](O)[C@H]1O (mixture of isomers) [LACTULOSE, lactulose] | 56.4 | 2.9 | 9.3 | 5.1 | 0.0 | 2.7 | 1.0 | 2.4 | 4.9 | 26.4 | 33.4 | 31 | 22 | 40 | 1.6 | 1.1 | 2.0
OC[C@H]1O[C@@H](O[C@H]2[C@H](O)[C@@H](O)C(O)O[C@@H]2CO)[C@H](O)[C@@H](O)[C@H]1O (stereo partly shown) [LACTOSE, lactose] | 49.5 | 7.5 | 3.7 | 9.0 | 0.6 | 3.5 | 0.0 | 2.5 | 6.9 | 26.5 | 30.6 | 28 | 18 | 38 | 1.4 | 0.9 | 1.9

— US20210161923A1, “Prebiotic Compositions And Methods Of Production Thereof” (OPTIBIOTIX LIMITED, priority 2018, published 2021)
